Test results published in publication PMC3152785.
No constants are given. Whether binding was seen depends on the method and setting. In cells and extracts the contact can be indirect. Some binding calls cover weakened binding; strength is not graded here. Tags and fused reporters may be left off the sequences shown.

Protein sequences, listed by entry. Tags and fused reporters are not part of them.
UniProt P03254: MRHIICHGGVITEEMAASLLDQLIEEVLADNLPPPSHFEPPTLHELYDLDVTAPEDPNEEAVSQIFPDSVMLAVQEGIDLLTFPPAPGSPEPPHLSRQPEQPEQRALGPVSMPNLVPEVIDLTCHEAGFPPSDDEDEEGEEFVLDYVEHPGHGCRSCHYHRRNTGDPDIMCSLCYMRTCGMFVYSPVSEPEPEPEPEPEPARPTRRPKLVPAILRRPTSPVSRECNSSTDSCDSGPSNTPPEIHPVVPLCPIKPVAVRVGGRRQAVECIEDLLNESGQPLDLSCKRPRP
UniProt P03129: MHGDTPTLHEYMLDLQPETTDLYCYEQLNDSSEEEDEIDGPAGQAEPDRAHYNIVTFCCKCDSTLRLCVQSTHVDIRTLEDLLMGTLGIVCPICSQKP

What was measured:
Assay in all cases: pull-down; 0.5 mg of precleared HeLa cell lysate with Myc-tagged Spry proteins incubated with 40 μg of GST-fusion protein for 1 h at 4°C, Glutathione Sepharose 4B; bound proteins by SDS-PAGE and anti-Myc immunoblot; only the target purified
[1] = biological target: GST-Ad2-E1A13S fusion protein (E1A13S of the non-oncogenic adenovirus serotype 2) (Adenovirus serotype 2 (Ad2)) (UniProt P03254)
[2] = biological target: GST-ΔNE1A13S (Ad12 E1A13S with a deletion of the first 29 N-terminal amino acids) (Adenovirus serotype 12 (Ad12)) (UniProt P03259)
[3] = biological target: GST-Ad12 E1A13S fusion protein (adenovirus type 12 E1A 266R protein, translated from the 13S mRNA) (Adenovirus serotype 12 (Ad12)) (UniProt P03259)
[4] = biological target: GST-HPV16-E7 fusion protein (E7 oncoprotein of Human papillomavirus type 16) (Human papillomavirus type 16 (HPV16)) (UniProt P03129)

Row | Binder | binding [1] | binding [2] | binding [3] | binding [4]
1 | Myc-tagged mouse Sprouty1 (Spry1) (protein, UniProt Q9QXV9 1-313) MDSPSQHGSHTSLVVIQPPAVEGRQRLDYDRDTQPATILSLDQIKAIRGSNEYTEGPSVARRPAPRTAPRPEKQERTHEIIPANVNSSYEHRPASHPGNARGSVLSRSTSTGSAASSGSSSSVSSEQGLLGRSPPTRPIPGHRSDRVIRTQPKQLLVEDLKASLKEDPTQHKFICEQCGKCKCGECTAPRALPSCLACDRQCLCSAESMVEYGTCMCLVKGIFYHCSNDDDGGSYSDNPCSCSQSHCCSRYLCMGALSLCLPCLLCYPPAKGCLKLCRGCYDWTHRPGCRCRNSNTVYCKLESCPSRAQGKLS | binds | binds weakly | binds | binds
2 | Myc-tagged mouse Sprouty2 (Spry2) (protein, UniProt Q9QXV8 1-315) MEARAQSGNGSQPLLQTAHDSGRQRGEPDPRDALTQQVHVLSLDQIRAIRNTNEYTEGPTVVPRPGLKPAPRPSTQHKHERLHGLPEHRQPPRLQPSQVHSSRAPLSRSISTVSSGSRSSTRTSTSSSSSEQRLLGPSFSHGPAAADGIIRVQPKSELKPGDVKPLSKDDLGLHAYRCEDCGKCKCKECTYPRPLPSDWICDKQCLCSAQNVIDYGTCVCCVKGLFYHCSNDDEDNCADNPCSCSQSHCCTRWSAMGVMSLFLPCLWCYLPAKGCLKLCQGCYDRVNRPGCRCKNSNTVCCKVPTVPPRNFEKPT | – | – | binds | –
3 | Myc-tagged mouse Sprouty4 (Spry4) (protein, UniProt Q9WTP2 1-300) MEPPVPQSSVPVNPSSVMVQPLLDSRAPHSRLQHPLTILPIDQMKTSHVENDYIDNPSLAPATGPKRPRGGPPELAPTPARCDQDITHHWISFSGRPSSVSSSSSTSSDQRLLDHMAPPPVAEQASPRAVRLQPKVVHCKPLDLKGPTAPPELDKHFLLCEACGKCKCKECASPRTLPSCWVCNQECLCSAQTLVNYGTCMCLVQGIFYHCTNEDDEGSCADHPCSCSGSNCCARWSFMGALSVVLPCLLCYLPATGCVKLAQRGYDRLRRPGCRCKHTNSVICKAASGDTKTSRSDKPF | – | – | binds | –
